Source: US20020165136A1, “MHC peptides and methods of use” (Thomas Jefferson University, priority 1996, published 2002)
Some results were stated once for a whole list of compounds, not compound by compound.

System: C6 cells
Experiment: In vivo apoptosis assay: peptide-pretreated C6 cells in a diffusion chamber implanted s.c. in rats
Parameters: species or system rat
Settings: for recovery (% of the inoculated cells): C6 cells preincubated with peptide at 10^−5M, 24 hours in diffusion chamber in rats; for reduction of recovery of C6 cells: in vivo apoptosis assay, as compared with control peptides
Procedure: The test for apoptosis in vivo was based on the use of the diffusion chamber described in detail by Resnicoff, M., et al., Cancer Res. 55: 2463-2469 (1995). According to this method, the cells are placed in a diffusion chamber that allows the passage of nutrients, antigens, antibodies, etc., but not of intact cells. The sterilized chamber is loaded with cells and then inserted into the subcutaneous tissue of rats or mice; after 24 hours, (or at other times, depending on the experiment) the chamber is removed and the number of cells in the chamber is determined with a hemocytometer, and expressed as a percentage of the original inoculum. The cells are also stained with trypan blue for viability; in the experience of the inventors, surviving cells are >95% viable.
For in vivo effects, 5×10^5 cells (C6 and CaOV-3 were both used for these studies) were placed in diffusion chambers and implanted into the s.c. tissue of the animals. Once the skin was sutured, the peptides were injected s.c. next to the chambers at the indicated concentrations in a final volume of 0.2 ml. Twenty-four hours later, the chambers were removed from the animals and the cells were quantitatively recovered.
(from gp100), involved in regression of human melanoma (Kawakami et al. 1994); 2) […], recognized by melanoma-specific human CTL lines (Cox et al, 1994); and 3) […], derived from connexin 37, that induces CTL responses against murine lung carcinoma (Mandelboim, et al., 1994). For each of these peptides, a control peptide having the same amino acid composition, but in scrambled order (controls), was also tested. C6 cells were preincubated with the peptides at a concentration of 10^−5M and transferred to the diffusion chamber (see Methods and Materials). Cell number was determined after 24 hours in the diffusion chamber transplanted into the subcutaneous tissue of rats.
Two of the three peptides were selected for further studies of the effects of mutations on the ability to induce apoptosis. Several point mutations were introduced into the peptide […]. […] Mutations at tyrosine in position 1, or the two prolines in positions 4 and 6, effectively inactivated peptide no. 2. An exception to this observation was seen when the prolines were replaced by an N-methyl amino acid. Mutations at E3 or T8 had little effect, but when both residues were mutated, recovery increased to 77%.
In order to determine the minimum concentration of these peptides that still would induce apoptosis in vivo, C6 cells were preincubated with different concentrations of the […] and D-amino acid […] peptides and recovery of viable cells was determined after 24 hours in the diffusion chamber.

Sequence | recovery (% of the inoculated cells) | reduction of recovery of C6 cells [%]
FECNTAQPG [peptide derived from connexin 37, induces CTL responses against murine lung carcinoma] | 5-7.5% | ≥ 95
LLDGTATLRL [MHC Class I peptide derived from gp100, human melanoma specific antigen] | 5-7.5% | ≥ 95
